In patent US20080287478A1 (priority 2003, published 2008):
“And” between values parts separate entries of the source, which are not always exact repeats. Equal values may be shown once. For some assays here: At least one read-out could not be matched to a standard name with certainty. For some assays here: For at least one compound, name, drawing or mass did not settle the structure.

Experiments:
[1] = tested on: male NMRI mice; details: mouse, in vivo, iv
[2] = tested on: Male SD/TAC rats; details: rat, in vivo
[3] = tested on: mice; details: mouse, in vivo

Structure (SMILES) | gridshock response versus vehicle [1] | SC max effect. [2] | dose with statistical significant decrease in locomotor activity from 15-30 minutes [3] [nmol/mouse] | dose with statistical significant increase in locomotor activity during the first 30 minutes ([3]; iv) [nmol/kg]
CC(C)[C@H]1CC[C@@H](N2CCC3(CC2)C(=O)N(CCCN2CCCNCCNCCCNCC2)CN3c2ccccc2)CC1 [Compound 36, cis-8-(4-Isopropyl-cyclohexyl)-1-phenyl-3-[3-(1,4,8,11-tetraaza-cyclotetradec-1-yl)-propyl]-1,3,8-triaza-spiro[4.5]decan-4-one] | No statistical significant difference | 3.5 and 4.9 |  | 
CC(C)C[C@H](NC(=O)[C@H](CCCCN)NC(=O)[C@H](CCCN=C(N)N)NC(=O)[C@H](C)NC(=O)[C@H](CO)NC(=O)[C@H](CCCCN)NC(=O)[C@H](CCCN=C(N)N)NC(=O)[C@H](C)NC(=O)CNC(=O)[C@@H](NC(=O)[C@H](Cc1ccccc1)NC(=O)CNC(=O)CNC(=O)[C@@H](N)Cc1ccccc1)[C@@H](C)O)C(=O)N[C@@H](C)C(=O)N[C@@H](CC(N)=O)C(=O)N[C@@H](CCC(N)=O)C(=O)O [Nociceptin, reference compound] | No statistical significant difference |  | 1 | 10000
